Assay [1] has as its target recombinant human interleukin-6 (IL6) (human) (UniProt P05231). The assay is described as follows: ELISA on coated IL6 and western blot, whole human IgG1.
For assay [2] the target is unchanged. The assay is described as follows: ELISA, plate coated with recombinant human IL6 at 2 µg/ml, FB704 in four-fold serial dilutions from 2 µg/ml, HRP-labeled goat anti-human IgG, A450. (In an ELISA, binding on a coated surface is turned into a signal by an enzyme label.)
The target is the same in assay [3]. The assay is described as follows: ELISA, cytokine coated on plate.
Assay [4] shares this target. The assay is described as follows: ELISA, plate coated with recombinant human IL6 at 2 µg/ml, FB704 in four-fold serial dilutions from 2 µg/ml, HRP-labeled goat anti-human IgG, A450 [Cont'd) B].
The target is the same in assay [5]. The assay is described as follows: biopanning and ELISA of phage-displayed scFv clones on coated recombinant IL6.

Amino acid sequences for entries named in this document (tags omitted). Residues count along the entry.
UniProt P05231, residues 30-212: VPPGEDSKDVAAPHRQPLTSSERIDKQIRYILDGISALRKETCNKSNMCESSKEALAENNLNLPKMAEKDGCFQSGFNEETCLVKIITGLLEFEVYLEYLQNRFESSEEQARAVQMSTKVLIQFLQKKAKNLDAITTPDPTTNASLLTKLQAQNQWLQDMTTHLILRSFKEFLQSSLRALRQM

Positions count from the first letter of the chain named. No constants are given. Whether binding was seen depends on the method and setting. Some binding calls cover weakened binding; strength is not graded here.

B1: Ag1-4-6 (fully human anti-IL6 IgG1 antibody) (antibody, V domains shown)
VH: EVQLVESGPALVKPTQTLTLTCTFSGFSLSTGGMSVSWIRQPPGKALEWLARIDWDDDKFYTPSLKTRLTISRDTSKNQVVLIMTNMDPVDTATYYCARMHIDDSNGYYSDAFHIWGQGTMVTVSS
VL: EIVLTQSPATLSVSPGERVTLSCRDSQSVSSTSLAWYQQKSGQAPRLLIYDTSNRATGIPARFSGGGSGTDFTLTISSLEPEDFAVYYCSFVSRPYPRFTFGQGTKVEIK
As for B1, the binding result in assay [1], in assay [2], in assay [3] and in assay [4] was “binds” in each case.

B2: Hag1T-3-10 phage-displayed scFv clone (scFv, V domains shown)
VH: B1 VH with Y109F
VL: B1 VL
For B2, the binding entry in assay [5] is “binds”.

B3: Ag1-4-6 (FB704) phage-displayed scFv clone (scFv, V domains shown)
VH: B1 VH
VL: B1 VL
Turning to B3, the binding entry in assay [5] is reported as “binds”.

B4: HAg1T-3-10 (fully human anti-IL6 IgG1 antibody) (antibody, V domains shown)
VH: B1 VH with Y109F
VL: B1 VL
For the molecule B4, in assay [1], the binding entry is on record as “binds”.

B5: 1-4-62 (fully human anti-IL6 IgG1 antibody) (antibody, V domains shown)
VH: B1 VH
VL: B1 VL with S90L, F91V, V92R, S93N, R94N, P95W, Y96P
Regarding B5, the binding result in assay [1] is “binds”.
